Patent publication US20190322762A1
These are yes or no findings as the source states them, for the method shown. Some results given as binding are weak or reduced against the parent protein; the word gives no strength.

The chains behind the UniProt entries cited, without tags or fusion partners. Where a name states a change or a piece, a line headed by the entry shows the natural chain unless it says otherwise. A line that says so, or that is headed by a name, gives the form on record, which may keep a tag or linker.
UniProt P06733: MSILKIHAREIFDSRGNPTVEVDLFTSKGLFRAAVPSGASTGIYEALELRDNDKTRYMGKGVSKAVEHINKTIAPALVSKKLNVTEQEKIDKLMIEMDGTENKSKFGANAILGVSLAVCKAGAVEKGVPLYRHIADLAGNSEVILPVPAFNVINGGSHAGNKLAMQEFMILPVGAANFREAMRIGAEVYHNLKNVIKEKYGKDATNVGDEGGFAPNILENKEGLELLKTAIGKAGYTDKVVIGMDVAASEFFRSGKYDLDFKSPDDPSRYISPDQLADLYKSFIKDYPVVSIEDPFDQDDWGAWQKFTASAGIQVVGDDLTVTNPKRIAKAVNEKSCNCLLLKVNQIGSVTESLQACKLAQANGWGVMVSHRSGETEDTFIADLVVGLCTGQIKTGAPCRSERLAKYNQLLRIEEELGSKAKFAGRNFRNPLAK
ENO1 mutant G312 to alanine (P06733, form named): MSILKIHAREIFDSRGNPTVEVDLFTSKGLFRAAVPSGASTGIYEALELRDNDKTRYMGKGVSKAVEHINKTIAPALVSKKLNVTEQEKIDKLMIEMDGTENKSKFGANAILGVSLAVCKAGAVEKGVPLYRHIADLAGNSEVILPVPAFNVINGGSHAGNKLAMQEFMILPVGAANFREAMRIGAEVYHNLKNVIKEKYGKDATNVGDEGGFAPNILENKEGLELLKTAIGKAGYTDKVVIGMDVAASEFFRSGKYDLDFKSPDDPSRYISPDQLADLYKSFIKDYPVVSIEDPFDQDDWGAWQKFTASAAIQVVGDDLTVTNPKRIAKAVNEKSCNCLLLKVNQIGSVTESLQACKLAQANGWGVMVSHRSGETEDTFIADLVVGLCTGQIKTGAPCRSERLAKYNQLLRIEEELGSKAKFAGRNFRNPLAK
ENO1 mutant Q298 to alanine (P06733, form named): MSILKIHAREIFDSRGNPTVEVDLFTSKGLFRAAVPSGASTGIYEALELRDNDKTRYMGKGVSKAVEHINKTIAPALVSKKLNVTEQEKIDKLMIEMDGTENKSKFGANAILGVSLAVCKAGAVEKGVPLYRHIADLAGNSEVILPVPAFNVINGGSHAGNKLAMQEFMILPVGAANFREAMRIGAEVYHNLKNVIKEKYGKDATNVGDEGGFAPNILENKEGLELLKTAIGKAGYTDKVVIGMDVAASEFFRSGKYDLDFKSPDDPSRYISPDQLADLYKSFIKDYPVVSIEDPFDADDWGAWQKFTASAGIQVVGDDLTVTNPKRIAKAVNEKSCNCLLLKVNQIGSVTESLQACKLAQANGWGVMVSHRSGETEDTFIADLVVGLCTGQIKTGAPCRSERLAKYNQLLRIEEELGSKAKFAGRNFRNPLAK
ENO1 mutant D299 to alanine (P06733, form named): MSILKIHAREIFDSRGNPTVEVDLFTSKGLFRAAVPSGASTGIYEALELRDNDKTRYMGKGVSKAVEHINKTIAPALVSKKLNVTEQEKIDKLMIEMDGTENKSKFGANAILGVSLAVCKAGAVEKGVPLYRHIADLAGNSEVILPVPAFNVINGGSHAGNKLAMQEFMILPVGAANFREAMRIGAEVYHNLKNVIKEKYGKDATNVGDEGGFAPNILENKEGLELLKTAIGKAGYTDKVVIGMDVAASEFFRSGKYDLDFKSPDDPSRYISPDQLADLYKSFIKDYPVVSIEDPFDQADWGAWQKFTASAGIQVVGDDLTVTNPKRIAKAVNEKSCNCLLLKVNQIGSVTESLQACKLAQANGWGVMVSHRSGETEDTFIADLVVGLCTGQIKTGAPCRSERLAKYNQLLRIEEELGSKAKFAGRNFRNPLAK
ENO1 mutant S310 to alanine (P06733, form named): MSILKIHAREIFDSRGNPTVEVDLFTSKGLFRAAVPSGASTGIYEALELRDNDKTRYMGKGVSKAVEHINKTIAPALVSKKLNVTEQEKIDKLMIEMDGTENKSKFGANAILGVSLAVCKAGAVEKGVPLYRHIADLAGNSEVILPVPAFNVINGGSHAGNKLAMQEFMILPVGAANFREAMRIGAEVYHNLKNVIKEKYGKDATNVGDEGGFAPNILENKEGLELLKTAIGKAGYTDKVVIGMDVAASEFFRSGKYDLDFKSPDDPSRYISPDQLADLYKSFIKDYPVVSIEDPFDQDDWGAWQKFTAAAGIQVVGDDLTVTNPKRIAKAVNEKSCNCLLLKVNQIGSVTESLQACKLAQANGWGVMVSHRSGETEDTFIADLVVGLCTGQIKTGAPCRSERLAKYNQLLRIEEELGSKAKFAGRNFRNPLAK

Legend:
[1] = molecular target: ENO1 mutant G312 to alanine (human) (UniProt P06733); assay: ELISA, mutant protein coated, antibody in 2-fold dilutions, OD450
[2] = molecular target: ENO1 mutant Q298 to alanine (human) (UniProt P06733); assay: as above
[3] = molecular target: ENO1 mutant D299 to alanine (human) (UniProt P06733); assay: as above
[4] = molecular target: ENO1 mutant S310 to alanine (human) (UniProt P06733); assay: as above
[5] = molecular target: human ENO1 protein (human) (UniProt P06733); assay: ELISA, human ENO1 coated on the plate, antibody titrated
[6] = molecular target: ENO1 mutant G312 to alanine (human) (UniProt P06733); assay: ELISA, ENO1 mutant A312 coated, EN10.5 mAb titrated
[7] = molecular target: ENO1 mutant D299 to alanine (human) (UniProt P06733); assay: ELISA, ENO1 mutant A299 coated, EN10.5 mAb titrated
[8] = molecular target: ENO1 mutant Q298 to alanine (human) (UniProt P06733); assay: ELISA, ENO1 mutant A298 coated, EN10.5 mAb titrated
[9] = molecular target: ENO1 mutant S310 to alanine (human) (UniProt P06733); assay: ELISA, ENO1 mutant A310 coated, EN10.5 mAb titrated
[10] = molecular target: human ENO1 protein (human) (UniProt P06733); assay: SPR, BIAcore 2000
[11] = molecular target: human ENO1 protein (human) (UniProt P06733); assay: SPR (BIAcore), antibody on the chip, two-fold dilutions of ENO1 injected (0.3125 nM to 40 nM per paragraph 183)

Measured: binding

B1: EN10.5 (antibody, V domains shown)
VH: QVQLVQSGAEVKKPGASVKVSCKASGYTFTSSVMNWVRQAPGQGLEWMGYINPYNDGTKYNEKFKGRVTMTTDTSTSTAYMELRSLRSDDTAVYYCAREGFYYGNFDNWGQGTLVTVSS
VL: DIQMTQSPSSLSASVGDRVTITCRASENIYSYLTWYQQKPGKAPKLLIYNAKTLPEGVPSRFSGSGSGTDFTLTISSLQPEDFATYYCQHHYGTPYTFGQGTKLEIKR
binds: [1] | [2] | [3] | [4] | [5] | [6] | [7] | [8] | [9]

B2: hum EN10 mAb IMGT (antibody, V domains shown)
VH: QVQLVQSGAEVKKPGASVKVSCKASGYTFTSCVMNWVRQAPGQGLEWMGYINPYNDGTKYNEKFKGRVTMTTDTSTSTAYMELRSLRSDDTAVYYCAREGFYYGNFDNWGQGTLVTVSS
VL: DIQMTQSPSSLSASVGDRVTITCRASENIYSYLTWYQQKPGKAPKLLIYNAKTLPEGVPSRFSGSGSGTDFTLTISSLQPEDFATYYCQHHYGTPYTFGQGTKLEIKR
binds: [5] | [10] | [11]

B3: EN10.4 (antibody, V domains shown)
VH: QVQLVQSGAEVKKPGASVKVSCKASGYTFTSAVMNWVRQAPGQGLEWMGYINPYNDGTKYNEKFKGRVTMTTDTSTSTAYMELRSLRSDDTAVYYCAREGFYYGNFDNWGQGTLVTVSS
VL: DIQMTQSPSSLSASVGDRVTITCRASENIYSYLTWYQQKPGKAPKLLIYNAKTLPEGVPSRFSGSGSGTDFTLTISSLQPEDFATYYCQHHYGTPYTFGQGTKLEIKR
binds: [5]
